Assay results as given in US20160151380A1, “THERAPIES FOR DISEASES CAUSED BY ARTHROPOD-BORNE PARASITES” (THE REGENTS OF THE UNIVERSITY OF CALIFORNIA, priority 2013, published 2016).
“Also recorded” adds a separate entry of the source. For at least one compound, name, drawing or mass did not settle the structure.

Key:
Plasmodium falciparum = experiment: P. falciparum development in A. stephensi after supplemented bloodmeal (oocysts); type: in vivo; details: single dose 10 μM in P. falciparum-infected bloodmeal
Experimental: Midguts were dissected and oocysts were counted at 10 days following infection. Dots in FIG. 3A and FIG. 3C represent oocyst numbers in one midgut, while percentage positive midguts or percentage of midguts with at least one oocyst are represented as means in FIG. 3B and FIG. 3D. Mean oocysts per midgut (lines, numbers on graph) were analyzed by ANOVA (alpha=0.05) for overall significance and by Student-Neuman-Keuls for pairwise comparisons using Graphpad Prism version 4.0 (San Diego, Calif.). Prevalences of mosquito infection (indicated on graph) were analyzed by chi-square (alpha=0.05).

anti-parasite genes = experiment: Midgut expression of anti-parasite/immune genes in A. stephensi (quantitative PCR); type: in vivo, Anopheles stephensi; details: bloodmeal containing 10 μM SP600125, relative to untreated bloodmeal
JNK1/3 = experiment: Midgut pJNK1/3 in A. stephensi after bloodmeal; type: in vivo, Anopheles stephensi; details: 10 μM in P. falciparum bloodmeal, 3 hr after feeding, relative to untreated bloodmeal
[1] = in vivo; cited from earlier work

Oc1c2ccccc2c2c3c(cccc13)N=N2 [SP600125]
infection intensity (mean oocysts in mosquitoes with at least one oocyst) (Plasmodium falciparum; A. stephensi): reduced | parasite infection prevalence (Plasmodium falciparum; two cohorts of A. stephensi (n=50)): reduced | expression of immune genes in the mosquito midgut (anti-parasite genes): enhanced expression | midgut pJNK1/3 (phosphorylation of JNK1/3) (JNK1/3): notably decreased; also recorded: reduced | malaria disease severity [1]: reduce malaria disease severity | parasitemia [1]: without an effect on parasitemia
